For this experiment, the target named is TARP-γ2 (stargazin; endogenous, rat neurons) (rat (endogenous in cortical and hippocampal neurons)) (UniProt Q71RJ2). The experiment can be described thus: affinity purification with mass spectrometry.

Amino acid sequences for entries named in this document (tags omitted).
UniProt Q71RJ2: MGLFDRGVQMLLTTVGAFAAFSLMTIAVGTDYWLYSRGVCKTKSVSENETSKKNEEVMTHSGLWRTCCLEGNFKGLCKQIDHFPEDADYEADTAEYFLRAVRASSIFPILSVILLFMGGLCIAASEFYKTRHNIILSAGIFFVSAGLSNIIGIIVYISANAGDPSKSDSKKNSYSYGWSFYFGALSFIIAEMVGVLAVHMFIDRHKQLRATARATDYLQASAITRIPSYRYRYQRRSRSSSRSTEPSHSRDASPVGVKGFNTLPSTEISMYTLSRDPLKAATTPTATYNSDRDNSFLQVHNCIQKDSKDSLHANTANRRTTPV
UniProt O88943: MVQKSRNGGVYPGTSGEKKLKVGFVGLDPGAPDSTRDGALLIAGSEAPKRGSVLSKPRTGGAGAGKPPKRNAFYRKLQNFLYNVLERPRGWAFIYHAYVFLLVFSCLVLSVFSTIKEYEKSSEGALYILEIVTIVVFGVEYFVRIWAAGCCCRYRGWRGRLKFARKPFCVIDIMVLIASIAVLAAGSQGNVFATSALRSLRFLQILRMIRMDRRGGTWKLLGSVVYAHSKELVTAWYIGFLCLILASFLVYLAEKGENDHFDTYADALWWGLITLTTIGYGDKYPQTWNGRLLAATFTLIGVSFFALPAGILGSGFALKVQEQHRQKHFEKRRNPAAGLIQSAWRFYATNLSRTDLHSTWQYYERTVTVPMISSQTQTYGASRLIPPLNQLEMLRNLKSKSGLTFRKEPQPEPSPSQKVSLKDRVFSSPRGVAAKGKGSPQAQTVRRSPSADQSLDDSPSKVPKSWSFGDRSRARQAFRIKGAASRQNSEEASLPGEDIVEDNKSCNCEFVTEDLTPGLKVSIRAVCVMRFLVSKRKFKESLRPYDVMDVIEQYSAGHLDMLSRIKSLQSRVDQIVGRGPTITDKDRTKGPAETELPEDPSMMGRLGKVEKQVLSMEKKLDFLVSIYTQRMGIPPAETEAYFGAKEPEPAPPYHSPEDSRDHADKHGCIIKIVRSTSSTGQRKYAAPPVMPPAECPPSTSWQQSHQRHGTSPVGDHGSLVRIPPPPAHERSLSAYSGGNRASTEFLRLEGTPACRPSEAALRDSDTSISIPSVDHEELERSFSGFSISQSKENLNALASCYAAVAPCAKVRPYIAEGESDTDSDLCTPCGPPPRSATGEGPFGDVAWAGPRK

Results are given in words; binding and its absence hold for the method and conditions named. Binding seen in cells or lysates may run through a third protein. Here binding means that the protein was enriched with, or labelled near, the bait; the list need not be complete.

For “Kv7.2 subunit of M-channels (endogenous, rat neurons) (from UniProt O88943 1-852)”, the binding result is on record as “binds”.

For the origin of these results see article doi:10.1101/2024.08.09.607194.
